The list is a part of this screen's results and no random one: it is rich in T/C values a quarter to a half above the control, in often repeated tests (any T/C) and in doses without a T/C. Other doses and runs of a compound stand elsewhere. T/C is the treated group as % of the vehicle group. Schedules are NCI's codes, taken here to give the interval after Q, in days (D) or hours (H), and the number of doses after X. Some T/C values are followed by the survivors on the day toxicity was checked, most often the fifth; where none is given, no animal had died by that day. Some doses have a count of surviving animals in place of a T/C: the source files T/C as zero there, which appears to mark a toxic dose or a test without result, not a measured value. Survivors were counted at the toxicity check, usually on the fifth day, unless a day is given; later deaths do not show.
System: MX-1 breast xenograft, intrarenal, nude mice, tumor weight
Experiment: NCI In Vivo Anticancer Drug Screen. Data for tumor model Human Mammary Carcinoma MX-1 Xenograft (intrarenal inoculation) in NU/NU BALB/C (nude) mice
Settings: T/C endpoint: mean tumor weight change, higher T/C = larger tumour; for T/C: evaluated on day 11
In short: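 Efficacy in vivo: tumor measurement or survival of treated animals divided by that of vehicle-dosed controls.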

[1] = dose: 600.0 mg/kg/injection, schedule: Q04DX003 (sc), vehicle: saline

## Cc1cnc(/C=N\NC(N)=S)c2cccc(N)c12
dose: 250.0 mg/kg/injection, schedule: Q04DX003 (ip), vehicle: saline with Tween-80
  survivor count: 2 of 6 on day 11
dose: 500.0 mg/kg/injection, schedule: Q04DX003 (ip), vehicle: saline with Tween-80
  survivor count: 0 of 6 on day 11
dose: 1000.0 mg/kg/injection, schedule: Q04DX003 (ip), vehicle: saline with Tween-80
  survivor count: 0 of 6 on day 11

## CCN(CC)CC(=O)O[C@]1(CC)C(=O)OCc2c1cc1n(c2=O)Cc2cc3ccccc3nc2-1
dose: 32.0 mg/kg/injection, schedule: Q04DX003 (ip), vehicle: other
  survivor count: 1 of 6 on day 11
dose: 32.0 mg/kg/injection, schedule: Q04DX003 (ip), vehicle: water
  survivor count: 0 of 6 on day 11

## CC(=O)C[n+]1ccccc1Sc1ccc(Cl)cc1
dose: 200.0 mg/kg/injection, schedule: Q04DX003 (ip), vehicle: saline with Tween-80
  survivor count: 2 of 6 on day 11

## CCS/C(SC)=C(/c1ccccc1)[P+](c1ccccc1)(c1ccccc1)c1ccccc1
dose: 75.0 mg/kg/injection, schedule: Q04DX003 (sc), vehicle: Klucel (hydroxypropylcellulose) (HPC)
  survivor count: 0 of 6 on day 11

## c1ccc2c(c1)-c1ccccc1C1NC21 (stereo unspecified)
dose: 150.0 mg/kg/injection, schedule: Q04DX003 (sc), vehicle: saline with Tween-80
  survivor count: 0 of 6 on day 11
dose: 300.0 mg/kg/injection, schedule: Q04DX003 (sc), vehicle: saline with Tween-80
  survivor count: 0 of 6 on day 11

## CN(N=O)C(=O)N[C@@H](C=O)[C@@H](O)[C@H](O)[C@H](O)CO
dose: 300.0 mg/kg/injection, schedule: Q04DX003 (ip), vehicle: other
  survivor count: 3 of 6 on day 11
dose: 300.0 mg/kg/injection, schedule: Q04DX003 (sc), vehicle: saline
  survivor count: 1 of 6 on day 11
[1]
  survivor count: 0 of 6 on day 11
dose: 1200.0 mg/kg/injection, schedule: Q04DX003 (sc), vehicle: saline
  survivor count: 0 of 6 on day 11

## CCCCCCCCCCCCN1C(C)=CS/C1=C\C=C\c1scc(C)[n+]1CCCCCCCCCCCC
dose: 6.0 mg/kg/injection, schedule: Q04DX003 (ip), vehicle: saline with Tween-80
  survivor count: 0 of 6 on day 11
dose: 12.5 mg/kg/injection, schedule: Q04DX003 (ip), vehicle: saline with Tween-80
  survivor count: 0 of 6 on day 11
dose: 25.0 mg/kg/injection, schedule: Q04DX003 (ip), vehicle: saline with Tween-80
  survivor count: 0 of 6 on day 11
dose: 50.0 mg/kg/injection, schedule: Q04DX003 (ip), vehicle: saline with Tween-80
  survivor count: 0 of 6 on day 11
dose: 100.0 mg/kg/injection, schedule: Q04DX003 (ip), vehicle: saline with Tween-80
  survivor count: 0 of 6 on day 11

## CN(Cc1cnc2nc(N)nc(N)c2n1)c1ccc(C(=O)NC(CCC(=O)OCc2cc3c(cc2Cl)OCO3)C(=O)OCc2cc3c(cc2Cl)OCO3)cc1 (stereo unspecified)
dose: 15.0 mg/kg/injection, schedule: Q04DX003 (ip), vehicle: saline with Tween-80
  survivor count: 2 of 5 on day 11
dose: 30.0 mg/kg/injection, schedule: Q04DX003 (ip), vehicle: saline with Tween-80
  survivor count: 0 of 5 on day 11
dose: 60.0 mg/kg/injection, schedule: Q04DX003 (ip), vehicle: saline with Tween-80
  survivor count: 0 of 5 on day 11

## C#CCN(Cc1ccc2nc(N)[nH]c(=O)c2c1)c1ccc(C(=O)NC(CCC(=O)O)C(=O)O)cc1 (stereo unspecified)
dose: 600.0 mg/kg/injection, schedule: Q04DX003 (ip), vehicle: water
  survivor count: 1 of 6 on day 11

## CCOC(=O)/C=C/C(=O)N1CCN(C(=O)/C=C/C(=O)OCC)C(C)C1 (stereo unspecified)
dose: 1200.0 mg/kg/injection, schedule: Q04DX003 (ip), vehicle: Klucel (hydroxypropylcellulose) (HPC)
  survivor count: 0 of 6 on day 11

## CC(=O)Nc1ccc(Nc2ccc(C(=C3C=CC(=[N+](C)CCC#N)C=C3)c3ccc(N(C)CCC#N)cc3)cc2)cc1
dose: 400.0 mg/kg/injection, schedule: Q04DX003 (ip), vehicle: suspension in saline
  survivor count: 0 of 6 on day 11
dose: 800.0 mg/kg/injection, schedule: Q04DX003 (ip), vehicle: suspension in saline
  survivor count: 0 of 6 on day 11

## Cc1ccc2c(c1)C1(SC(C)C(=O)N1c1ccc(Cl)cc1)C(=O)N2 (stereo unspecified)
dose: 400.0 mg/kg/injection, schedule: Q04DX003 (ip), vehicle: saline with Tween-80
  T/C: 125 % of control [5 of 6 alive on day 11]

## O=C(O)c1ccc(C(=O)O)c(C(=O)O)c1.[NH-]C1CCCCC1[NH-].[Pt+2]
dose: 25.0 mg/kg/injection, schedule: Q01DX010 (sc), vehicle: sodium bicarbonate
  survivor count: 2 of 5 on day 11

## CCc1ccc(C2=C(O)C(=O)C(c3ccc(CC)cc3)=C(O)C2=O)cc1
dose: 400.0 mg/kg/injection, schedule: Q04DX003 (sc), vehicle: saline with Tween-80
  survivor count: 0 of 6 on day 11
dose: 800.0 mg/kg/injection, schedule: Q04DX003 (sc), vehicle: saline with Tween-80
  survivor count: 0 of 6 on day 11
dose: 1600.0 mg/kg/injection, schedule: Q04DX003 (sc), vehicle: saline with Tween-80
  survivor count: 0 of 6 on day 11

## Clc1ccc(CN2COc3c(ccc4cccnc34)C2)cc1Cl
dose: 200.0 mg/kg/injection, schedule: Q01DX010 (sc), vehicle: saline with Tween-80
  T/C: 134 % of control

## c1ccc2c3c(c4c(c2c1)CN(C1CCCCC1)CO4)OCN(C1CCCCC1)C3
dose: 37.5 mg/kg/injection, schedule: Q04DX003 (ip), vehicle: water
  T/C: 137 % of control
dose: 150.0 mg/kg/injection, schedule: Q04DX003 (ip), vehicle: water
  survivor count: 2 of 6 on day 11
dose: 300.0 mg/kg/injection, schedule: Q04DX003 (ip), vehicle: water
  survivor count: 1 of 6 on day 11

## Cc1cc(O)c2c(c1O)C(=O)C13C(=C2O)C(=O)C2C(O)C1C1C(O)C3C(=O)C3=C(O)c4c(O)cc(C)c(O)c4C(=O)C321 (stereo unspecified)
dose: 3.12 mg/kg/injection, schedule: Q04DX003 (ip), vehicle: saline with Tween-80
  T/C: 129 % of control
dose: 6.25 mg/kg/injection, schedule: Q04DX003 (ip), vehicle: saline with Tween-80
  T/C: 133 % of control

## O=C(/C=C/c1cccnc1)/C=C/c1cccnc1
dose: 12.5 mg/kg/injection, schedule: Q04DX003 (ip), vehicle: Klucel (hydroxypropylcellulose) (HPC)
  T/C: 138 % of control
dose: 25.0 mg/kg/injection, schedule: Q04DX003 (ip), vehicle: Klucel (hydroxypropylcellulose) (HPC)
  T/C: 140 % of control
dose: 100.0 mg/kg/injection, schedule: Q04DX003 (ip), vehicle: Klucel (hydroxypropylcellulose) (HPC)
  survivor count: 2 of 6 on day 11

## O=NN(CCCl)C(=O)NCCCl
dose: 60.0 mg/kg/injection, schedule: Q04DX003 (sc), vehicle: Klucel (hydroxypropylcellulose) (HPC)
  survivor count: 0 of 3 on day 11
dose: 120.0 mg/kg/injection, schedule: Q04DX003 (sc), vehicle: Klucel (hydroxypropylcellulose) (HPC)
  survivor count: 0 of 3 on day 11

## CN(C)c1ccc2c(Nc3ccc(NS(C)(=O)=O)cc3)c3ccc(N(C)C)cc3nc2c1
dose: 400.0 mg/kg/injection, schedule: Q04DX003 (ip), vehicle: Klucel (hydroxypropylcellulose) (HPC)
  survivor count: 3 of 6 on day 11
dose: 800.0 mg/kg/injection, schedule: Q04DX003 (ip), vehicle: Klucel (hydroxypropylcellulose) (HPC)
  survivor count: 0 of 6 on day 11

## CC(=O)CC(=O)CCC(=O)O
[1]
  T/C: 140 % of control
dose: 2400.0 mg/kg/injection, schedule: Q04DX003 (sc), vehicle: saline
  survivor count: 1 of 6 on day 11

## C/C=C(\C)c1cc(=O)c2c(C)cc3c(c2o1)C(=O)c1c(O)c(C2CC(C)(N(C)C)C(OC(C)=O)C(C)O2)cc(C2CC(N(C)C)C(O)C(C)O2)c1C3=O (stereo unspecified)
dose: 40.0 mg/kg/injection, schedule: Q04DX003 (sc), vehicle: saline
  survivor count: 0 of 6 on day 11

## NNC(=S)N/N=C/c1ccccn1
dose: 120.0 mg/kg/injection, schedule: Q04DX003 (sc), vehicle: saline with Tween-80
  survivor count: 0 of 6 on day 11

## C[n+]1ccc2cc(N)c3c4ccccc4sc3c2c1
dose: 50.0 mg/kg/injection, schedule: Q04DX003 (sc), vehicle: saline with Tween-80
  survivor count: 0 of 6 on day 11
dose: 100.0 mg/kg/injection, schedule: Q04DX003 (sc), vehicle: saline with Tween-80
  survivor count: 0 of 6 on day 11

## S=C1CCCCN1
dose: 600.0 mg/kg/injection, schedule: Q04DX003 (ip), vehicle: distilled water + Tween-80 + alcohol
  survivor count: 0 of 6 on day 11
dose: 1200.0 mg/kg/injection, schedule: Q04DX003 (ip), vehicle: distilled water + Tween-80 + alcohol
  survivor count: 0 of 6 on day 11

Reference: PubChem BioAssay AID298 (DTP/NCI, 2004)
